Assay results taken from PubChem BioAssay AID1345085 (National Center for Advancing Translational Sciences (NCATS), 2018).
Inconclusive results, whose numbers are uncertain, are shown with a selection of clear calls. A potency beside an inconclusive call is a rough fit, not a confirmed value. Calls of active or inactive are those of the source. Calls follow the shape of the dose curve; as a rule, active = well fitted cell-killing curve with a large enough effect; inconclusive = small, poorly fitted or top-dose-only effect, or effect the other way; inactive = no such curve, though single readings can be large or run the other way.

Tested on: CASKI
Experiment: Confirmatory qHTS for gynecologic anti-cancer compounds from libraries of approved drugs and bioactive compounds; also: nearly all actives have a fitted effect of over 55% in size
Settings: gynecologic cancer cell panel viability, ATPlite luminescence, 48 h; series mostly up to 57.6 µM
Excerpt: National Center for Advancing Translational Sciences [NCATS] Assay Overview: Chemotherapeutic drug responses vary from cancer to cancer and from patient to patient. These variations could be caused by a number of factors including patient genomic background, tumor mutations, tumor heterogeneity, and aspects of drug treatment. Chemotherapeutic drug resistance is also a common issue and can lead to ineffective treatment and patient death. Here we have profiled the cell killing effects of thousands of compounds to characterize the responses in three gynecological cancers, identify cancer-selective compounds, and understand the diversity of responses to these compounds from pan-cancer suppressors to single cell line selective compounds. In this assay, we screened a 7,914 compound drug library that included approved drug and bioactive compounds in six ovarian, three cervical, and two placental cancer cell lines using the ATPlite assay for cell viability. ATPlite is a luminescence based assay reliant on the conversion of a luciferase substrate to light in the presence of ATP. As a cytotoxic compound will suppress growth and decrease the number of cells, the concentration of ATP will decrease, and less light signal will be detected in the well. Hits were selected from the primary screen for follow-up confirmation. For the confirmation screens, the ovarian cancer cell lines included CAOV-3, SK-OV-3, SW 626, ES-2, PA-1, and TOV-21G. The cervical cancer cell lines included HeLa, Ca Ski, and C-33 A. The placental cancer cell lines included JEG-3 and JAR. HEK 293T cells were used as the control cell line to determine the selectivity index. The ATPlite assay was used to determine the IC50 values.
Assay Protocol Summary: 1,000 cells in 4 uL of media were dispensed into white, solid bottom 1536-well plates using a Multidrop Combi (Thermo Scientific). The Assay plates were incubated for 16 hours at 37 C with 5% CO2 in assay plates, followed by the addition of 23 nL of DMSO or drug dissolved in DMSO. . Each compound was assayed in 11 concentrations (1:3 dilution) from 57.5 uM to 0.977 nM, using the automated Wako 1536 Pin Tool workstation and incubated at 37 C with 5% CO2 48 hours. 4 uL of ATPlite, the ATP monitoring reagent, was then added to the each well of the assay plates using the Multidrop Combi reagent dispenser followed by incubation for 15 minutes at room temperature. The resulting luminescence was measured using the ViewLux plate reader.
Potency is read from the fitted curve at half-maximal effect.

Q: How did the Potency turn out when `CCNC(=O)C[C@@H]1N=C(c2ccc(Cl)cc2)c2cc(OC)ccc2-n2c(C)nnc21` was run?
A: Its Potency is inconclusive: 13.7 µM [cytotoxic, partial curve, poor fit].

Q: With `C=C(C)[C@H]1Cc2c(ccc3c2O[C@@H]2COc4cc(OC)c(OC)cc4[C@@H]2C3=O)O1` as the compound, how does the Potency read?
A: The Potency was active: 0.109 µM.

Q: How did the Potency turn out when `C[C@]12CC[C@H]3[C@@H](CCC4=CC(=O)CC[C@@H]43)[C@@H]1CC[C@@H]2OC(=O)CCc1ccccc1` was run?
A: The Potency was “inactive”.

Q: Which Potency does the source give for `C/C=C(/C)C(=O)O[C@H]1C(C)=C2[C@H]([C@@H]1OC(=O)CCCCCCC)[C@@](C)(OC(C)=O)C[C@H](OC(=O)CCC)[C@@]1(O)[C@H]2OC(=O)[C@@]1(C)O` here?
A: Its Potency is active: 34.3 µM.

Q: For `O=C(O)Cc1ccccc1`, which Potency is on record?
A: Its Potency is “inactive”.
